The record followed here is patent US20160369115A1, “POLARIZING PLATE COMPOSITION, POLARIZING PLATE PROTECTIVE FILM, POLARIZER, POLARIZING PLATE, LIQUID CRYSTAL DISPLAY DEVICE, AND COMPOUND USED IN THE LIQUID CRYSTAL DISPLAY DEVICE” (FUJIFILM Corporation, priority 2014, published 2016).

Some compounds share one wording; it may come from a single statement.

A short description of data set [1]: Evaluation of light-fast adhesiveness of polarizing plate protective film with hardcoat layer. Particulars: additive in protective film: Cellulose acylate, 25 μm, added amount 4.0 per 100 parts by mass of film resin; light 96 hours, 60° C., 50% RH.
The nature of data set [2]: Durability evaluation of polarizing plate, additive in polarizing plate protective film (Example 1). To be noted: additive in protective film: Cellulose acylate, 25 μm, added amount 4.0 per 100 parts by mass of film resin; 410 nm.

`CC(C)(C)OC(=O)Oc1c(Cc2ccccc2)c(=O)n(-c2ccccc2)c(=O)n1Cc1ccccc1` [Example compound E]: the Light-fast adhesiveness entry in data set [1] is reported as “A (The number of cells peeled off among 100 cells was equal to or less than 10.)”. In addition, in data set [2], the “Durability of polarizer: amount of change of orthogonal transmittance (%) 60° C., 95%, 500 hours” value is “A+ (The amount of change of the orthogonal transmittance before and after the elapse of time was less than 0.4%.)”; the “Durability of polarizer: amount of change of orthogonal transmittance (%) 60° C., 95%, 1,000 hours” value was “A+ (The amount of change of the orthogonal transmittance before and after the elapse of time was less than 1.0%.)”; the “Durability of polarizer: amount of change of orthogonal transmittance (%) 80° C., Dry 500 hours” value is “A+ (The amount of change of the orthogonal transmittance before and after the elapse of time was less than 0.1%.)”; the “Durability of polarizer: amount of change of orthogonal transmittance (%) 80° C., Dry, 1,000 hours” value was “A+ (The amount of change of the orthogonal transmittance before and after the elapse of time was less than 0.5%.)”.
Turning to `O=C(Oc1c(Cc2ccccc2)c(=O)n(-c2ccccc2)c(=O)n1-c1ccccc1)OC1c2ccccc2-c2ccccc21` [Example compound G], the Light-fast adhesiveness entry in data set [1] is “A (The number of cells peeled off among 100 cells was equal to or less than 10.)”. Also, in data set [2], the “Durability of polarizer: amount of change of orthogonal transmittance (%) 60° C., 95%, 500 hours” value is “A+ (The amount of change of the orthogonal transmittance before and after the elapse of time was less than 0.4%.)”; the “Durability of polarizer: amount of change of orthogonal transmittance (%) 60° C., 95%, 1,000 hours” value is “A+ (The amount of change of the orthogonal transmittance before and after the elapse of time was less than 1.0%.)”; the “Durability of polarizer: amount of change of orthogonal transmittance (%) 80° C., Dry 500 hours” value is “A+ (The amount of change of the orthogonal transmittance before and after the elapse of time was less than 0.1%.)”; the “Durability of polarizer: amount of change of orthogonal transmittance (%) 80° C., Dry, 1,000 hours” value was “A+ (The amount of change of the orthogonal transmittance before and after the elapse of time was less than 0.5%.)”.
On to `CC(C)(C)[Si](C)(C)Oc1c(C2CCCCC2)c(=O)n(-c2ccccc2)c(=O)n1-c1ccccc1` [Example compound I], for which the Light-fast adhesiveness result in data set [1] is reported as “A (The number of cells peeled off among 100 cells was equal to or less than 10.)”. Moreover, in data set [2], the “Durability of polarizer: amount of change of orthogonal transmittance (%) 60° C., 95%, 500 hours” value is “A+ (The amount of change of the orthogonal transmittance before and after the elapse of time was less than 0.4%.)”; the “Durability of polarizer: amount of change of orthogonal transmittance (%) 60° C., 95%, 1,000 hours” value was “A+ (The amount of change of the orthogonal transmittance before and after the elapse of time was less than 1.0%.)”; the “Durability of polarizer: amount of change of orthogonal transmittance (%) 80° C., Dry 500 hours” value was “A+ (The amount of change of the orthogonal transmittance before and after the elapse of time was less than 0.1%.)”; the “Durability of polarizer: amount of change of orthogonal transmittance (%) 80° C., Dry, 1,000 hours” value was “A+ (The amount of change of the orthogonal transmittance before and after the elapse of time was less than 0.5%.)”.
Take `CC(C)[Si](Oc1c(Cc2ccccc2)c(=O)n(-c2ccccc2)c(=O)n1Cc1ccccc1)(C(C)C)C(C)C` [Example compound K]: in data set [1], the Light-fast adhesiveness entry is on record as “A (The number of cells peeled off among 100 cells was equal to or less than 10.)”. In addition, in data set [2], the “Durability of polarizer: amount of change of orthogonal transmittance (%) 60° C., 95%, 500 hours” value is “A+ (The amount of change of the orthogonal transmittance before and after the elapse of time was less than 0.4%.)”; the “Durability of polarizer: amount of change of orthogonal transmittance (%) 60° C., 95%, 1,000 hours” value is “A+ (The amount of change of the orthogonal transmittance before and after the elapse of time was less than 1.0%.)”; the “Durability of polarizer: amount of change of orthogonal transmittance (%) 80° C., Dry 500 hours” value was “A+ (The amount of change of the orthogonal transmittance before and after the elapse of time was less than 0.1%.)”; the “Durability of polarizer: amount of change of orthogonal transmittance (%) 80° C., Dry, 1,000 hours” value was “A+ (The amount of change of the orthogonal transmittance before and after the elapse of time was less than 0.5%.)”.
